Assay results reported in paper PMC9239104, “Scaffolding Protein GspB/OutB Facilitates Assembly of the Dickeya dadantii Type 2 Secretion System by Anchoring the Outer Membrane Secretin Pore to the Inner Membrane and to the Peptidoglycan Cell Wall” (mBio, 2022).
Results are given in words; binding and its absence hold for the method and conditions named. Binding seen in cells or lysates may run through a third protein. Some entries that bind do so weakly or less than the wild type. For part of these data: Tags and fused reporters may be left off the sequences shown.

By UniProt entry, the sequences of proteins in these tests, tags left out. Where a name states a change or a piece, a line headed by the entry shows the natural chain unless it says otherwise. Residues count along the entry.
UniProt Q01565: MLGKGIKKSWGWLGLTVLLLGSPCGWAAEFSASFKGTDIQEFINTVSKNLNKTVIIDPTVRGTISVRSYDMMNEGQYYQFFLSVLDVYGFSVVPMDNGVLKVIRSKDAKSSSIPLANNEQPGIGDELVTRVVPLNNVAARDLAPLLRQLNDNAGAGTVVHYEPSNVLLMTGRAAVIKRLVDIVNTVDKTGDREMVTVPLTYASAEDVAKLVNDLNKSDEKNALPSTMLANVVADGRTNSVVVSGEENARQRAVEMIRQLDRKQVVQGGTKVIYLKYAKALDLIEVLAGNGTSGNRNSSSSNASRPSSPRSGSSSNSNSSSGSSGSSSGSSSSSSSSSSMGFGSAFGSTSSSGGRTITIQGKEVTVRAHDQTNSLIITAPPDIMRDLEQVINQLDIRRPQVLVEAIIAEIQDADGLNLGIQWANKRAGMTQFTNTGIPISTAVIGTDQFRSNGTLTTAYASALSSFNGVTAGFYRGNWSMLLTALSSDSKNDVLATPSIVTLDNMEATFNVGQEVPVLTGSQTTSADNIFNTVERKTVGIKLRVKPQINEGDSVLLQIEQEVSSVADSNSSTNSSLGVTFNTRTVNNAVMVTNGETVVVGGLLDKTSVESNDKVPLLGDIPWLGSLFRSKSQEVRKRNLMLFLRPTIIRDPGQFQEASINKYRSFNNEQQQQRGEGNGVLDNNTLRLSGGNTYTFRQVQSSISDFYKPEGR
Secretin OutD (GspD), full-length: residues 28-710 of Q01565

Columns and labels:
[1] = molecular target: Secretin OutD (GspD), full-length (Dickeya dadantii) (UniProt Q01565); experiment: co-sedimentation; membranes of E. coli MC3/pREP4 carrying DBS-derived plasmids, French press, discontinuous 35%-to-65% sucrose gradient, 48,000 rpm 70 h; fractions immunoblotted
[2] = molecular target: T1, GST-tagged C-terminal portion of OutB, consisting of the HR and CTE (residues P112 to K220) (Dickeya dadantii) (UniProt Q01563); experiment: pull-down; GST-OutB domains coexpressed with OutD N-terminal domains from the same plasmid in E. coli BL21(DE3); cell extract in TSE buffer (50 mM Tris-HCl pH 8.0, 100 mM NaCl, 1 mM EDTA, 1 mM PMSF) with 0.1% Triton X-100 on glutathione agarose, six washes; SDS-PAGE, Coomassie or anti-OutD blot
T1 sequence: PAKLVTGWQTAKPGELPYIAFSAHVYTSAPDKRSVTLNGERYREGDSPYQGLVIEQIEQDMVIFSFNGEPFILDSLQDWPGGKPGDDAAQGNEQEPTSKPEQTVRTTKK

[3] = molecular target: GST-tagged HR domain of OutB (residues P112 to G192) (Dickeya dadantii) (UniProt Q01563); experiment: as above

Substance | binding [1] | binding [2] | binding [3]
OutB (GspB), full-length (from UniProt Q01563 1-220) | binds | – | –
OutD N0 domain (residues A1 to S85), pull-down construct (from UniProt Q01565 28-112) (domain or fragment) | – | binds | binds
